In the supplement of paper PMC7125110:
± gives the standard error. Many of these values have a large error.

B1: glmS ribozyme (parent)
chain: AUAAAAGCGCCAGAACUACAGAAAUGUAGUUGACGAGGAGGAGGUUUAUCGAAUUUUCGGCGGAUGCCUCCAAA

Variants of: B1
Test: self-cleavage kobs at 10000 uM GlcN6P; higher = faster cleavage; RNA array
Details: with glucosamine-6-phosphate
How it was run: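 The measurements used barcoded ribozyme variants on sequenced MiSeq chips, transcribed in situ by E. coli RNA polymerase and tracked at 37 °C with a hybridised Cy3 probe. Glucosamine-6-phosphate, 40 μM to 10 mM in HEPES/KCl/Mg(OAc)2 buffer, was flowed in while tiles were imaged over ~14 h. Baseline-normalised signals, also normalised to non-cleaving reference variants, gave per-tile medians that were fit to one- or two-exponential decays for kobs. kcat and KM resulted from weighted Michaelis–Menten fits across concentrations.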

Variant	self-cleavage kobs at 10000 uM GlcN6P
AUAAAAGCGCCAGAACUACAGAAAUGUAGCUUAGGAGGAGGAGGUUUAUGGAAUUUUCGGCGGAUGCCUCCAAA [U30C G32U C34G C50G]	3.45e-05 ± 2e-05 s⁻¹
AUAAAAGCGCCAGAACUACAGAAAUGUAGGUGACGAGGAGGGGGUUUAUCGAAUUUUUGGCGGAUGCCUCCAAA [U30G A42G C58U]	4.12e-05 ± 2.5e-05 s⁻¹
AUAAAAGCGCCAGAACUACAGAAAUGUAGGUGACGAGGAGGAAGUUUAUCGAAUUUUCGGCGGAUGCCUCCAAA [U30G G43A]	1.6e-05 ± 1.6e-05 s⁻¹
AUAAAAGCGCCAGAACUACAGAAAUGUAGGAGUCGAGGAGGAGGUUUAUCGAAUUUUCGGCGGAUGCCUCCAAA [U30G U31A A33U]	2.4e-05 ± 1.2e-05 s⁻¹
AUAAAAGCGCCAGAACUACAGAAAUGUAGGCGACGAGGAGGAGGUUUAUCGAAUUUUCGGCGGAUGCCUGCAAA [U30G U31C C70G]	3.38e-05 ± 2.4e-05 s⁻¹
AUAAAAGCGCCAGAACUACAGAAAUGUAGGUGACGAGGAGGAGGUUUAUCGAAUAUUCGGCGGAUGCCUCCAAA [U30G U55A]	0.0235 ± 0.013 s⁻¹
AUAAAAGCGCCAGAACUACAGAAAUGUAGGUGACGAGGAGGAGGUUUAUCGAAUUGUUGGCGGAUGCCCCCAAA [U30G U56G C58U U69C]	2.82e-05 ± 2.2e-05 s⁻¹
AUAAAAGCGCCAGAACUACAGAAAUGUAGGUGACGAGGAGGAGGUUUAUCGAAUUUGCGGCGGAUGCCUCCAAA [U30G U57G]	1.92e-05 ± 1.2e-05 s⁻¹
AUAAAAGCGCCAGAACUACAGAAAUGUAGUAGACGAGGGGGAGGUUUAUCGAAUUUUCGGCGGAUGCCCCCAAA [U31A A39G U69C]	3.16e-05 ± 2.4e-05 s⁻¹
AUAAAAGCGCCAGAACUACAGAAAUGUAGUAGACGAGGAGGAGGUUUUUCGAAUUCUCGGCGGAUGCCUCCAAA [U31A A48U U56C]	3.23e-05 ± 1.9e-05 s⁻¹
AUAAAAGCGCCAGAACUACAGAAAUGUAGUAGACGAGGAGGAGGUUUAUUGAGUUUUCGGCGGAUGCCUCCAAA [U31A C50U A53G]	2.62e-05 ± 1.7e-05 s⁻¹
AUAAAAGCGCCAGAACUACAGAAAUGUAGUAGACGACGAGGAGGUUUAUCGAAUUUUCGGCGGAUGCCUCCAAA [U31A G37C]	2.83e-05 ± 2.1e-05 s⁻¹
AUAAAAGCGCCAGAACUACAGAAAUGUAGUAGACGAGGAGGAGGUUUAUCGAAUUUUCUGCGGAUGCCUCCAAA [U31A G59U]	2.94e-05 ± 1.7e-05 s⁻¹
AUAAAAGCGCCAGAACUACAGAAAUGUAGUAGACGAGGAGGAGGUUUAUCGAACUUUGGGCGGAUGCCUCCAAA [U31A U54C C58G]	1.94e-05 ± 1.2e-05 s⁻¹
AUAAAAGCGCCAGAACUACAGAAAUGUAGUCGACGAGGAGGAGGUUUAUGGAAUUUUCGGCGGAUGCCUCCAAA [U31C C50G]	1.81e-05 ± 1.2e-05 s⁻¹
AUAAAAGCGCCAGAACUACAGAAAUGUAGUCAACGAGGAGGAGGUUUAUCGAAUAUUCGGCGGAUGCCUCGAAA [U31C G32A U55A C71G]	3.42e-05 ± 1.9e-05 s⁻¹
AUAAAAGCGCCAGAACUACAGAAAUGUAGUGGACGAGGAGGAGGUUUAUCGUAGUUUCGGCGGAUGCCUCCAAA [U31G A52U U54G]	3.73e-05 ± 2.2e-05 s⁻¹
AUAAAAGCGCCAGAACUACAGAAAUGUAGUGGACGAGGAGGAGGUUUAUCGAAUUUUCGGCGGUUGCCUCCAAA [U31G A64U]	1.75e-05 ± 1e-05 s⁻¹
AUAAAAGCGCCAGAACUACAGAAAUGUAGUGGACGAGGAGGAGGUUUAUAGAAUUGUCGGCGGAUGCCGCCAAA [U31G C50A U56G U69G]	2.31e-05 ± 2e-05 s⁻¹

Quoted from the listing:
Entry for AUAAAAGCGCCAGAACUACAGAAAUGUAGUCGACGAGGAGGAGGUUUAUGGAAUUUUCGGCGGAUGCCUCCAAA [U31C C50G] under self-cleavage kobs at 10000 uM GlcN6P: 1.81e-05 ± 1.2e-05 s⁻¹
Entry for AUAAAAGCGCCAGAACUACAGAAAUGUAGGUGACGAGGAGGGGGUUUAUCGAAUUUUUGGCGGAUGCCUCCAAA [U30G A42G C58U] under self-cleavage kobs at 10000 uM GlcN6P: 4.12e-05 ± 2.5e-05 s⁻¹
Entry for AUAAAAGCGCCAGAACUACAGAAAUGUAGUAGACGAGGAGGAGGUUUAUUGAGUUUUCGGCGGAUGCCUCCAAA [U31A C50U A53G] under self-cleavage kobs at 10000 uM GlcN6P: 2.62e-05 ± 1.7e-05 s⁻¹

The listing continues.

Variant	self-cleavage kobs at 10000 uM GlcN6P
AUAAAAGCGCCAGAACUACAGAAAUGUAGUGGACGACGAGGAGGUUUAUCGAAUUUUCGGCGGAUGCCUCCAAA [U31G G37C]	2.53e-05 ± 1.3e-05 s⁻¹
AUAAAAGCGCCAGAACUACAGAAAUGUAGUUAACGAGGAGGAGGUUUCUCGAAUUUUCGGCGGAUGCCUCCAAA [G32A A48C]	2.86e-05 ± 1.8e-05 s⁻¹
AUAAAAGCGCCAGAACUACAGAAAUGUAGUUAACGAGGAGGAGGUUUUUCGAAUUUUCGGCGGAUGCCUCCAAA [G32A A48U]	2.44e-05 ± 1.2e-05 s⁻¹
AUAAAAGCGCCAGAACUACAGAAAUGUAGUUAACGAGAAGGAGGUUUAUGGAAUUUUCGGCGGAUGCCUACAAA [G32A G38A C50G C70A]	2.57e-05 ± 1.4e-05 s⁻¹
AUAAAAGCGCCAGAACUACAGAAAUGUAGUUAACGAGGAGGAGGUUUAUCGAAUUUGCGGCGGAUGCCUCCAAA [G32A U57G]	2.06e-05 ± 1.3e-05 s⁻¹
AUAAAAGCGCCAGAACUACAGAAAUGUAGUUCACGAGGAGGAGGUUGAUCGAAUUUUCGGCGGAUGCCUCCAAA [G32C U47G]	1.16e-05 ± 1e-05 s⁻¹
AUAAAAGCGCCAGAACUACAGAAAUGUAGUUUACGAGGAGGAGGUUUAUCGAAUAUUCGGCGGACGCCUCCAAA [G32U U55A U65C]	2.56e-05 ± 2e-05 s⁻¹
AUAAAAGCGCCAGAACUACAGAAAUGUAGUUGCCGAGGAAGAGGUUUAUCGAAUUUUCGGCGGAUGCCUCCAAA [A33C G40A]	1.64e-05 ± 1.3e-05 s⁻¹
AUAAAAGCGCCAGAACUACAGAAAUGUAGUUGCCGAGGAGGAGGUUUAUCGAAUUUUCGGCGGAUUCCUCCAAA [A33C G66U]	1.76e-05 ± 1.3e-05 s⁻¹
AUAAAAGCGCCAGAACUACAGAAAUGUAGUUGCCGAGGAGGAGGUAUAUCGAAUUUUCGGCGGAUGCCUCCAAA [A33C U46A]	2.53e-05 ± 1.6e-05 s⁻¹
AUAAAAGCGCCAGAACUACAGAAAUGUAGUUGGCAAGGAGGAGGUGUAUGGAAUUUUCGGCGGAUGCCUCCAAA [A33G G35A U46G C50G]	1.83e-05 ± 1.8e-05 s⁻¹
AUAAAAGCGCCAGAACUACAGAAAUGUAGUUGUCGAGGAGGAGGUUUAUAGAAUUUUCGGCGGAUGCGUCCAAA [A33U C50A C68G]	2.25e-05 ± 2.1e-05 s⁻¹
AUAAAAGCGCCAGAACUACAGAAAUGUAGUUGUCGAGGACGAGGUUUAUCGAAUUUUCGGCGGAUGCCUCAAAA [A33U G40C C71A]	2.6e-05 ± 1.5e-05 s⁻¹
AUAAAAGCGCCAGAACUACAGAAAUGUAGUUGUCGAGGAGGAGGUUUAUCGAAUUGUCGGCGGAUGCCUCCAAA [A33U U56G]	2.51e-05 ± 1.4e-05 s⁻¹
AUAAAAGCGCCAGAACUACAGAAAUGUAGUUGAAGAGGAGGAGGUUUAUCGAAUUUUCGGCGGAUGCCUCCAAA [C34A]	< 1e-05 s⁻¹
AUAAAAGCGCCAGAACUACAGAAAUGUAGUUGAUGAGGAGGAGGUUUAUCGAAUUUUCGGCGGAUGCCUACAAA [C34U C70A]	0.000789 ± 0.00064 s⁻¹
AUAAAAGCGCCAGAACUACAGAAAUGUAGUUGAUGAGGAGGAGGUUUAUCGAAUUUUCGGCGGAAGCAUCCAAA [C34U U65A C68A]	3.25e-05 ± 2.4e-05 s⁻¹
AUAAAAGCGCCAGAACUACAGAAAUGUAGUUGACAAGGAGGAGGUUUAUCGAAUUUUCGGCGGAUGGCUCCAAA [G35A C67G]	1.7e-05 ± 1.5e-05 s⁻¹
